Residue numbers refer to the chain shown, from its start. These are yes or no findings as the source states them, for the method shown. Tags and fused reporters may be left off the sequences shown.

Among the data in article PMC3630204 are binding values, retold here.

The target in experiment [1] is E. coli MenH Tyr85Phe mutant, His-tagged (E. coli) (UniProt P37355). The experiment is described as follows: SEC; Superdex 200 16/60 column in 50 mM Tris-HCl pH 8.5, 150 mM NaCl, 1% v/v glycerol, 1 mM TCEP; self-association; both purified. Background: SEC sorts molecules by how far they enter the pores of the column.
Experiment [2] concerns the target E. coli MenH Arg124Ala mutant, His-tagged (E. coli) (UniProt P37355). Described as above.

B1: E. coli MenH Tyr85Phe mutant, His-tagged (enzyme, UniProt P37355 1-252)
chain: MILHAQAKHGKPGLPWLVFLHGFSGDCHEWQEVGEAFADYSRLYVDLPGHGGSAAISVDGFDDVTDLLRKTLVSYNILDFWLVGFSLGGRVAMMAACQGLAGLCGVIVEGGHPGLQNAEQRAERQRSDRQWVQRFLTEPLTAVFADWYQQPVFASLNDDQRRELVALRSNNNGATLAAMLEATSLAVQPDLRANLSARTFAFYYLCGERDSKFRALAAELAADCHVIPRAGHNAHRENPAGVIASLAQILRF
As to B1, in experiment [1], the binding result is “no binding”.

B2: E. coli MenH Arg124Ala mutant, His-tagged (enzyme, UniProt P37355 1-252)
chain: B1 chain with F85Y, R124A
In the case of B2, in experiment [2], the binding result was “no binding”.
